# Some results were stated once for a whole list of compounds, not compound by compound.
# Key:
# Type in all cases: in vivo
# Phakopsora pachyrhizi [1] = assay: Curative control of soy bean rust on soy beans (glass house trial); details: 16 ppm spray, soy bean seedlings, assessed 14 days after treatment, untreated plants 90%
# Phakopsora pachyrhizi [2] = assay: Protective control of soy bean rust on soy beans (glass house trial); details: 16 ppm spray, inoculated 2 days after treatment, soy bean seedlings, untreated plants 90%
# Puccinia recondita = assay: Preventative control of brown rust on wheat (glass house trial); details: 63 ppm spray, inoculated next day, wheat seedlings, untreated plants 80%
smiles,measurement,setting,value
"CN(Cc1ccc(-c2noc(C(F)(F)F)n2)cc1)S(=O)(=O)CC(F)(F)F [Ex-2, 2,2,2-trifluoro-N-methyl-N-[[4-[5-(trifluoromethyl)-1,2,4-oxadiazol-3-yl]phenyl]methyl]ethanesulfonamide]",diseased leaf area,Phakopsora pachyrhizi [1],at most 5%
same,diseased leaf area,Phakopsora pachyrhizi [2],at most 3%
same,diseased leaf area,Puccinia recondita,at most 4%

# From US20190322631A1, “SUBSTITUTED OXADIAZOLES FOR COMBATING PHYTOPATHOGENIC FUNGI” (BASF SE, priority 2016, published 2019)
